This passage reports MIC results from ChEMBL document CHEMBL1255264, “Mechanism-based pharmacokinetic-pharmacodynamic models of in vitro fungistatic and fungicidal effects against Candida albicans” (Antimicrob Agents Chemother, 2008).

≈ marks a conversion by molar mass, not a printed value.

As usually defined, the MIC is the lowest concentration that inhibits growth of the organism. Read a high MIC as weaker potency.

The assay concerns Candida albicans. Briefly: Antifungal activity against Candida albicans ATCC 3153 after 48 hrs. The assay is classed as functional. Conditions: ATCC 3153, 48 h.

In the case of `OC(Cn1cncn1)(Cn1cncn1)c1ccc(F)cc1F` [FLUCONAZOLE], the MIC worked out at 1.56 µg/mL (≈ 5.09 µM).
